Laboratory results reported in PubChem BioAssay AID504467 (National Center for Advancing Translational Sciences (NCATS), 2011).
About 7,700 (2.3%) of roughly 330,000 compounds were called active. Inconclusive results, whose numbers are uncertain, are shown with a selection of clear calls. Calls come from the whole dose curve; as a rule, active = well fitted inhibition curve with a large enough effect; inconclusive = small, poorly fitted or top-dose-only effect, or effect the other way; inactive = flat fitted curve, though single readings scatter. Potencies beside an inconclusive call are fits to weak or partial responses and may not hold up.

assay: qHTS screen for small molecules that inhibit ELG1-dependent DNA repair in human embryonic kidney (HEK293T) cells expressing luciferase-tagged ELG1; settings: HEK293T ELG1-luciferase reporter, luminescence, 16 h, DNA damage induced by 5-fluorouridine; series mostly up to 46.1 µM; note: nearly all actives have a fitted effect of over 55% in size
Summary of the method: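 Cells (2,000 per well) received 5-fluorouridine plus test compound or DMSO and were incubated 16 hr at 37 °C, 5% CO2. Luciferase activity was read by luminescence 30 min after ONE-Glo addition; signal suppression marked inhibition of damage-induced ELG1 function.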
Potency is the fitted concentration of half-maximal effect.

Compound	Potency
O=c1c(O)c(-c2ccccc2)oc2cc(O)cc(O)c12	active: 13 µM
COc1ccc(S(=O)(=O)n2nc(OCc3cccs3)cc2N)cc1	inactive
Cc1ccc(S(=O)(=O)N(C)C)cc1NC(=O)COC(=O)C1=COCCO1	inactive
c1ccc(COc2ccccc2CNC2CCCC2)cc1	inconclusive: 6.51 µM [inhibitor, partial curve, poor fit]
COc1cc(CSc2nnnn2-c2ccc(C)cc2)cc(OC)c1OC	inactive
CCOC(=O)Cn1nc(C)cc1NC(=O)c1cc(OC)c(OC)c(OC)c1	inconclusive: 29.1 µM [activator, single point]
CCOc1ccccc1/C=C/C(=O)N1CCN(C(=O)c2ccco2)CC1	inactive
O=C(Nc1ccc(NC(=O)c2ccc(Cl)c(S(=O)(=O)N3CCOCC3)c2)cc1)c1ccccc1	inconclusive: 7.3 µM [activator, partial curve]
COc1ccc(-c2cc(=O)oc3c(C)c(O)ccc23)cc1	active: 8.2 µM
CCN(CC)c1ccc(C2C(C(=O)OC(C)C)C(=O)CC(C)(O)C2C(=O)OC(C)C)cc1 (stereo not drawn)	inconclusive: 8.2 µM [inhibitor, partial curve, poor fit]
CSCC(O)Cn1ncc2ccccc2c1=O (stereo not drawn)	inconclusive: 20.6 µM [activator, single point]
COC(=O)c1c(C)[nH]c(C(=O)OC(C)C(=O)N(C)C2CCCCC2)c1C (stereo not drawn)	inconclusive: 5.8 µM [inhibitor, single point]
O=C(Nc1ccccn1)C1CCN(c2ncnc3c2nc2n3CCCCC2)CC1	active: 2.59 µM
Cc1ccc(NC(=O)Nc2cnccn2)c(C)c1	inconclusive: 14.6 µM [activator, partial curve]
CCCN1CCC(=O)N([C@H](CSc2ccccc2)Cc2ccccc2)CC1	inactive
O=C(Nc1cccnc1)c1ccc(S(=O)(=O)N2CCCCCC2)cc1	inconclusive: 20.6 µM [inhibitor, single point]
CCc1ccc(CNC(=O)c2ccc3nc(C4CCCCC4)oc3c2)nc1	inconclusive: 20.6 µM [activator, partial curve, poor fit]
Cc1c(C(=O)O)sc2ncnc(N3CCCCC3C)c12 (stereo not drawn)	inactive
N#C/C(=C/c1ccc(O)c([N+](=O)[O-])c1)C(=O)Nc1ccccc1	inactive
Cc1cc(C(=O)OCC(=O)Nc2cccnc2Cl)c2ccccc2n1	inactive
C=C(C)C(O)CC/C(C)=C/Cc1c(O)ccc(C(=O)/C=C/c2ccc(O)cc2)c1O (stereo not drawn)	inconclusive: 29.1 µM [inhibitor, single point]
COc1ccc(C(=O)Nc2nnc(-c3ccccc3)s2)cc1	inconclusive: 1.83 µM [activator, full curve]
Cc1ccccc1NC(=O)CCC(=O)N/N=C/c1ccncc1	inconclusive: 20.6 µM [inhibitor, partial curve, poor fit]
CCOc1ccc(N(CC(=O)NCCSCc2ccc(Cl)cc2)S(C)(=O)=O)cc1	inconclusive: 25.9 µM [inhibitor, single point]

A section from the list above:
Compound	Potency
O=C(Nc1ccccn1)C1CCN(c2ncnc3c2nc2n3CCCCC2)CC1	active: 2.59 µM
Cc1ccc(NC(=O)Nc2cnccn2)c(C)c1	inconclusive: 14.6 µM [activator, partial curve]

Continuation:

Compound	Potency
CC(C)CCNC(=O)c1c[nH]c2ccc(S(=O)(=O)N3CCOCC3)cc2c1=O	inactive
CCCCCOC(=O)Nc1ccc(S(=O)(=O)Nn2cnnc2)cc1	inactive
CCOCC(=O)Nc1cc(C(=O)Nc2ccc(F)cc2)ccc1Cl	inconclusive: 16.4 µM [activator, partial curve, poor fit]
Cc1ccc(Nc2nc(-c3cccnc3)nc3ccccc23)cc1	inconclusive: 6.51 µM [inhibitor, full curve]
CC(=O)Nc1ccc(C(=O)CSc2nnc(Cn3nnc4ccccc43)n2C)cc1	inactive
COc1cc(C)c(C)cc1S(=O)(=O)NC1CC(C)(C)NC(C)(C)C1	inactive
O=C(NC1CC1)c1scc2c1OCCO2	active: 16.4 µM
COc1ccnc(N2CCN(c3ccccc3)CC2)c1C#N	inconclusive: 1.46 µM [activator, full curve]
CCc1nnc(NC(=O)CN2C(=O)/C(=C/c3cc(OC)c(OC)c(OC)c3)SC2=S)s1	inactive
CC(C)c1ccc(S(=O)(=O)c2cc3cc(Br)ccc3oc2=O)cc1	inactive
Cc1ccc(S(=O)(=O)N(C)/N=C/c2ccc(N(C)C)cc2)cc1	inconclusive: 29.1 µM [inhibitor, single point]
COc1cc(NC(=O)C2=C(N3CCOCC3)/C(=C\c3ccc(Cl)cc3Cl)CC2)cc(OC)c1OC	active: 20.6 µM
c1ccc(C(Cc2nc(-c3ccncc3)no2)c2ccccc2)cc1	inactive
CC1(C)CC(=O)C(C=NCCc2ccc(O)cc2)=C(O)C1	inconclusive: 25.9 µM [inhibitor, single point]
CCC1Sc2ccc(S(=O)(=O)CCC(=O)Nc3cccc(Br)c3)cc2NC1=O (stereo not drawn)	inactive
Fc1ccc2[nH]c3c(NCCN4CCOCC4)ncnc3c2c1	inconclusive: 18.4 µM [inhibitor, single point]
NC(=O)Nc1ccccc1C(=O)NCCc1ccccc1	inconclusive: 14.6 µM [activator, partial curve]
O=C(Nc1ccccc1)N1CCCC2CCCCC21 (stereo not drawn)	inconclusive: 18.4 µM [activator, partial curve]
CCCOc1ccc(CN(CCC#N)C(=S)NC(=O)c2ccccc2)cc1	inconclusive: 18.4 µM [activator, single point]
CCOc1ccc(CNCc2ccccc2Cl)cc1	inconclusive: 18.3 µM [activator, single point]
COc1ccc(NC(=O)Cc2c[nH]c3ccccc23)cc1S(=O)(=O)N1CCOCC1	inactive
Cc1ccc(Nc2nc(-c3c(C)nc4ccccn34)cs2)cc1	inconclusive: 29.1 µM [inhibitor, single point]
COc1ccc(-c2noc(CN(C)S(=O)(=O)c3ccc(Cl)cc3)n2)cc1OC	inconclusive: 15.8 µM [inhibitor, single point]
O=C(N/N=C/c1ccc(Br)s1)c1ccco1	inconclusive: 18.3 µM [activator, partial curve]
